# Library screen at single concentrations

Results are given as percent effect. The record does not define 0% and 100%; most values in the screen are far below 50% and negative numbers occur (in some assays of this library far below -100). The compounds are a random part of those screened.

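Whole-parasite assay of Trypanosoma brucei over 72 hours; the read-out is not stated. Tested at 30 µM. The record gives no direction; compounds that gave an IC50 in retests scored well above the rest, so higher reads as stronger inhibition. Values scatter widely below zero; nearly all retest evidence comes from the higher of the two concentrations used. About 64,000 compounds were tested under these conditions; 1.5% (about 940) showed 50% or more at least once.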

* CN(c1cccnc1N1CCCC1)S(=O)(=O)c1cccs1 | 38.25%
* Cc1cc(C(=O)N2CCC(O)(Cn3ccc4ccncc43)CC2)on1 | -19.72%
* CN1CCN(Cc2ccccc2CNC(=O)c2ccc(Cl)cc2F)CC1 | -24.32%
* NC(=O)Cn1ccnc1C1CCCN(CCSc2ccccc2)C1 (centres undefined) | -53.89%
* COc1cccc(S(=O)(=O)NC(=O)COC2CCCCC2)c1 | -18.56%
* Cc1ccc(CN2CCc3c(C(=O)N(C)C)n[nH]c3C2)o1 | -24.64%
* O=S(=O)(CCO)Cc1ccc(OCC(F)(F)F)cc1 | -12.21%
* [H][C@@]12COC(=O)N1CCN(C(=O)COC)C2 | -28.3%
* Cn1c(NCC(O)c2ccc(F)cc2F)c(C#N)c(=O)n(C)c1=O (centres undefined) | -7.086%
* CNC(=O)COc1c(C(C)=O)ccc(Cl)c1Cl | 2.304%
* O=C(c1cccnc1SCc1ccccc1)N1CC[C@@H](O)C1 | -23.14%
* CCCc1nc(CN2CCCC2Cn2cccn2)cs1 (centres undefined) | 100.2%
* CCc1noc(C(C)N2CCC(C)CC2)n1 (centres undefined) | 4.633%
* Cc1nc(CCNC(=O)NCc2cccc(N(C)C)n2)cs1 | -0.844%
* CN(C)C(=O)CCNC(=O)Nc1cccc(Cl)c1-n1cccn1 | -45.52%
* CCCN1CCc2nc(SCc3ccccc3F)[nH]c(=O)c2C1 | -23.91%
* CCc1nc(C2CCCN2CC(=O)Nc2c(C)n[nH]c2C)no1 (centres undefined) | 17.45%
* Cc1ccc(NC(=O)c2cccc(OCc3nnnn3C)c2)nc1 | -24.33%
* CN(C)CCN(Cc1ccccc1)C(=O)CN1CCCNC1=O | 2.023%
* CCS(=O)(=O)N1Cc2[nH]nc(COCc3cccnc3)c2C1.O=C(O)C(F)(F)F | -37.05%
* COc1ccccc1NC(=O)CC(C)NCc1scnc1C (centres undefined) | -31.91%
* O=C1CC(c2ccc(C(=O)O)cc2)c2ncn(-c3cccc(F)c3)c2N1 (centres undefined) | 44.02%
* O=C(O)C(F)(F)F.O=C(O)C(F)(F)F.[H][C@@]12COC[C@]1(C(=O)NCc1cccnc1)CN(Cc1scnc1C)C2 | -17.26%
* O=C(O)C(F)(F)F.O=C(O)C(F)(F)F.[H][C@@]12CO[C@@H](CN(C)C)[C@]1([H])CCN(Cc1ccoc1)C2 | -136.1%
* COc1ccccc1OCC(=O)N1CCC[C@]2(C[C@@H](OC)CO2)C1 | -73.41%
* [H][C@@]12CN(C)C[C@]1(C(=O)N(C)C)CCC21CCN(C(=O)NC(C)C)CC1 | -36.11%
* COc1cc(S(=O)(=O)Nc2cn[nH]c2)ccc1Br | 0.2837%
* COc1cccc(OC)c1C(C(=O)O)N(C)Cc1c(C)n[nH]c1C (centres undefined) | -27.13%
* CCCc1noc(C(C)N2CCN(CCn3ccccc3=O)CC2)n1 (centres undefined) | 10.8%
* CN1CCC(CN(C)S(=O)(=O)CC2CCCCC2)CC1 | -15.2%
* O=C1NCC2(CCCN(c3ncnc4c3CCC4)CC2)O1 (centres undefined) | -6.025%
* CSCC(=O)N1CCC(Oc2cccc(C)c2)CC1 | -8.054%
* O=C(COCCOc1ccccc1)NC1CCN(c2ccccn2)CC1 | 3.489%
* Cn1cc(Br)cc1C(=O)NCC(C)(O)c1ccsc1 (centres undefined) | -2.808%
* CCOc1c(OC)cc(/C=C/c2ncc(C(=O)NC)s2)cc1OC | -31.8%
* [H][C@]12CC[C@]([H])(CN(c3nccc(C)n3)C1)N(CCOC)C2=O | -20.12%
* Cc1nc2c(C(=O)O)cccc2n1-c1ccc(C(=O)N2CCCC2)o1 | -46.07%
* O=C(O)C(F)(F)F.O=C(O)C(F)(F)F.[H][C@@]12OCCC[C@]1([H])N(Cc1cnn(C)c1)C[C@@H]2N1CCOCC1 | -30.18%
* CC(C)Nc1nc2c(c(N(C)C)n1)CCN(Cc1nccn1C)CC2.O=C(O)C(F)(F)F | -23.72%
* CCCC1c2cccn2CCN1C(=O)c1cc(CC)no1 (centres undefined) | -21.08%
* Cc1ccsc1-c1nccn1C1CC(=O)N(C(C)C)C1 (centres undefined) | 27.29%
* CCc1nc(N2CCN(c3ncccc3C#N)CC2)c2cnn(C)c2n1 | -55.03%
* O=C(NCCc1ccccn1)c1[nH]nc2c1CCCC2 | -24.8%
* Cc1cc(CNC(=O)NC(C)c2ccncc2)no1 (centres undefined) | -37.46%
* CC(CNC(=O)c1cc(-n2cccn2)ccn1)Cn1ccnc1 (centres undefined) | -83.98%
* Cc1cccc(NC2CCN(C(=O)Nc3cccc4[nH]ccc34)CC2)n1 | 36.57%
* Nc1nc2c(c(N3CCCC(OCc4ccccn4)C3)n1)CCNCC2 (centres undefined) | -9.99%
* Cc1ccc(N2CCCC3(CCN(C(=O)c4sccc4C)C3)C2)nn1 (centres undefined) | -24.79%
* CN(C)c1ncc2c(O)nc(C3CCNCC3)cc2n1.Cl | -29.5%
* CCn1nc(C)c2ncnc(NCCN3CCOCC3)c21 | -28.08%
* CN(Cc1cc(=O)c(O)co1)C1CCCN(c2ccccc2)C1 (centres undefined) | -8.56%
* CC(C)=CCC1(CO)CCCN(S(C)(=O)=O)C1 (centres undefined) | 6.803%
* O=C(NC1CCN(c2cccc(OC(F)(F)F)c2)C1=O)C1CC1 (centres undefined) | 29.03%
* O=C(O)c1cc(S(=O)(=O)Nc2ccc(F)c(Cl)c2)cc2c1OCCO2 | -27.35%
* CC(C)N1CCC2(CCCN(c3nccc(C(F)(F)F)n3)C2)CC1.O=C(O)C(F)(F)F | 63.32%

For reference, 6 entries once more:

Result for Cc1nc2c(C(=O)O)cccc2n1-c1ccc(C(=O)N2CCCC2)o1 was -46.07%.
Result for CN1CCC(CN(C)S(=O)(=O)CC2CCCCC2)CC1 was -15.2%.
Result for CC(C)N1CCC2(CCCN(c3nccc(C(F)(F)F)n3)C2)CC1.O=C(O)C(F)(F)F was 63.32%.
Result for CNC(=O)COc1c(C(C)=O)ccc(Cl)c1Cl was 2.304%.
Result for Cc1cc(CNC(=O)NC(C)c2ccncc2)no1 (centres undefined) was -37.46%.
Result for CCc1noc(C(C)N2CCC(C)CC2)n1 (centres undefined) was 4.633%.

The values are deposited in ChEMBL (CHEMBL3988442, “University of Dundee, Small-Polar-MMV Screening Library” (2021)).